The values below come from PubChem BioAssay AID2685 (National Center for Advancing Translational Sciences (NCATS), 2010).

The other results are listed elsewhere or left out. Shown are side measurements of this screen, not its main read-out; they come without a call. Compounds called inactive in the main read-out are mostly missing here. Words in brackets tell the shape of the fitted curve; partial curves, single points and poor fits give uncertain potencies.

The nature of this test: qHTS Assay for Lipid Storage Modulators in Drosophila S3 Cells.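 As to cell number change: cells counted by Cell Tracker Red CMTPX staining in the red channel.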 Conditions: BODIPY lipid droplet fluorescence, 18-24 h; for cell number change: measured here: cell count max response, cells fed with added oleic acid. The method, boiled down:
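Drosophila S3 cells got compounds at several concentrations plus oleic acid (400 uM solution). Laser-scanning cytometry with 488 nm excitation read lipid droplets at 500-530 nm and cells at 575-640 nm. Percent activity was relative to 20 uM Triacsin C.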
In general terms: qHTS replaces the single test concentration by a dilution series.

Where [1] appears, read: measured here: lipid fluorescence (Fed channel) AC50, cells fed with added oleic acid.
Where [2] appears, read: measured here: cell number channel AC50, cells fed with added oleic acid.

One may read the AC50 as the concentration at which the activity in the assay is half-maximal. A higher AC50 goes with weaker potency.

Consider `COC(=O)c1cc(N=Cc2c(O)c3ccccc3oc2=O)cc(C(=O)OC)c1`, for which the cell number change is -25.4%. Moreover, the AC50 under setting [1] is 3.66 µM [falling, full curve, poor fit]. For `CCCCN(CCCC)S(=O)(=O)c1ccc(C(=O)Nc2nnc(CSC)o2)cc1`, the cell number change worked out at 8.23%. For the molecule `C=CCNC(=S)NNC(=O)c1cccn(Cc2ccc(Cl)c(Cl)c2)c1=O`, the cell number change is 2.65%. Besides, the AC50 under setting [2] is 0.651 µM [falling, full curve, poor fit]. For the same molecule, the half-maximal activity concentration (AC50) under setting [1] is 1.3 µM [falling, full curve]. With `CCCc1nc(SCC(=O)Nc2ccccc2)c2c(=O)n(C)c(=O)n(C)c2n1`, the cell number change amounted to 60.3%. Moreover, the AC50 under setting [2] is 0.146 µM [rising, full curve, poor fit]. Besides, the concentration at half-maximal activity (AC50) under setting [1] is 14.6 µM [rising, partial curve, poor fit]. `Cc1cc(SCc2ccc(C(F)(F)F)cc2)nc(=O)[nH]1`: under setting [1], the half-maximal activity concentration (AC50) is 29.1 µM [rising, single point]. For the molecule `COc1ccc(N2C(=O)CSC2c2ccc(F)c(F)c2)cc1` (configuration not stated), the cell number change came out at 57.7%. For the same molecule, the concentration at half-maximal activity (AC50) under setting [2] is 13 µM [rising, partial curve, poor fit]. With `COc1ccc(OCCNC(=O)c2cc(C3CC3)nc3c2cnn3C(C)C)cc1`, the cell number change worked out at 11.1%. Moreover, the half-maximal activity concentration (AC50) under setting [1] is 32.6 µM [falling, single point]. Turning to `CCN(CC(=O)Nc1cc(C)nn1-c1nc(C)cc(C)n1)Cc1ccccc1`, the cell number change is 144%. The AC50 under setting [2] was 10.3 µM [rising, partial curve]. Further, the AC50 under setting [1] is 2.59 µM [rising, partial curve].

On to `NC(=O)C1CCN(Cc2cccc(OCc3ccccc3)c2)CC1`, for which the cell number change is 17.1%. Also, under setting [1], the half-maximal activity concentration (AC50) was 0.058 µM [rising, full curve, poor fit]. For `CCOC(=O)C1=C(C)NC2=C(C(=O)CC(c3ccc(OC)c(OC)c3)C2)C1c1ccc(C)o1` (configuration not stated), the cell number change is -11.4%. In addition, under setting [1], the AC50 was 0.366 µM [falling, single point].

As to `Cc1ccc(N/C(CSC(N)=O)=N\S(=O)(=O)c2ccc(C)cc2)cc1`, the cell number change is -24.3%. Besides, the AC50 under setting [1] was 5.8 µM [falling, full curve]. In the case of `COc1cc2c(cc1NC(=O)C(C)Sc1ccc(NC(C)=O)cc1)oc1ccccc12` (configuration not stated), the cell number change amounted to 1.49%. For the same molecule, the AC50 under setting [1] was 0.0184 µM [rising, full curve, poor fit]. For `CCN(C(=O)CN1C(=O)NC2(CCc3ccccc32)C1=O)C1CCS(=O)(=O)C1` (configuration not stated), the cell number change turned out to be 25.9%. Moreover, the AC50 under setting [1] was 16.4 µM [rising, single point]. Consider `Cc1ccc(C)c(S(=O)(=O)NCC(=O)Nc2ccc3c(c2)OCO3)c1`, for which the cell number change was found to be 11.3%. For the same molecule, the AC50 under setting [1] is 6.51 µM [rising, full curve, poor fit]. Turning to `CCOc1ccc(-c2nc(N)ncc2-c2ccc(Cl)cc2)c(O)c1`, the cell number change is -73.4%. Under setting [2], the concentration at half-maximal activity (AC50) was 8.2 µM [falling, partial curve]. On to `Cc1cc(C)nc(SCC(=O)N/N=C/c2cccs2)n1`, for which the cell number change was determined as 10.9%. Also, the AC50 under setting [1] is 23.1 µM [rising, partial curve, poor fit]. As to `Cc1ccc(CN(C(=O)c2ccc(Cl)c([N+](=O)[O-])c2)C2CCS(=O)(=O)C2)o1` (configuration not stated), the cell number change is -2.45%.

For `O=C(NC1CCCC1)C(c1cccnc1)N(C(=O)c1ccco1)c1cccc(F)c1` (configuration not stated), the cell number change is -3.85%. As for `NC(=O)c1nsc(C(=O)N(CC(=O)NCc2ccccc2)c2ccc(F)cc2)c1N`, the cell number change was found to be 16.7%. Consider `CCOC(=O)N1CCN(C2=CC(=O)OC23CCCCC3)CC1`, for which the cell number change came to 12.1%. Further, the AC50 under setting [1] was 6.51 µM [falling, single point]. For `Cc1cc(OCC(=O)Nc2ccc(N3CCN(C(=O)c4ccco4)CC3)cc2)cc(C)c1Cl`, the AC50 under setting [1] is 1.46 µM [rising, partial curve].

Take `COc1ccc(/C=N/NC(=O)CCCOc2ccc(Cl)cc2Cl)cc1`: the cell number change was -21.4%. Besides, under setting [1], the AC50 was 29.1 µM [falling, partial curve]. Consider `Cc1ccc(Cl)cc1-c1ccc(C=Nc2ccc(N3CCOCC3)cc2)o1`, for which the cell number change worked out at 13.5%. Further, the half-maximal activity concentration (AC50) under setting [2] was 6.51 µM [rising, single point]. In addition, the AC50 under setting [1] was 9.2 µM [rising, single point].

As to `Fc1ccc(Oc2nc(-c3ccccc3)nnc2C(F)(F)F)cc1`, the cell number change was 1.12%. Besides, the AC50 under setting [2] is 1.64 µM [rising, partial curve]. In addition, the AC50 under setting [1] is 1.64 µM [rising, partial curve].

As to `CCn1c(SCC(=O)N2CCCC2)nc2ccccc21`, under setting [1], the AC50 is 0.58 µM [falling, full curve, poor fit].

On to `CCc1nnc(NC(=O)CSc2ccc(-c3ccccc3OC)nn2)s1`, for which the cell number change turned out to be 33.1%. The AC50 under setting [2] is 23.1 µM [rising, single point]. Turning to `Cc1nccn1CCCNC(=O)c1nc(Cn2cc([N+](=O)[O-])cn2)no1`, the cell number change was found to be 31.4%. Moreover, under setting [2], the AC50 was 0.461 µM [rising, full curve, poor fit]. `CCO/C=C1\C(=O)N(c2ccccc2)C(=O)c2ccccc21`: the cell number change came to 38.2%. Moreover, the AC50 under setting [2] was 0.651 µM [rising, partial curve]. The half-maximal activity concentration (AC50) under setting [1] was 0.411 µM [falling, partial curve, poor fit]. Take `Cc1onc(-c2c(F)cccc2Cl)c1C(=O)NNC(=O)C1CCN(Cc2cccc(F)c2)CC1`: under setting [2], the AC50 was 6.51 µM [falling, single point].

For the molecule `CNC(=O)CN(c1cc(OCCOC)c(Cl)cc1Cl)S(=O)(=O)c1ccccc1`, the AC50 under setting [2] is 0.731 µM [rising, single point].

Consider `O=C(Cc1ccccc1)Nc1ccccc1Oc1ccccc1`, for which the cell number change was -51.2%. For the same molecule, the half-maximal activity concentration (AC50) under setting [2] is 29.1 µM [falling, single point]. Also, the AC50 under setting [1] is 2.31 µM [rising, full curve]. Consider `CC1CCCCC1NC(=O)COC(=O)c1cc(=O)c2ccccc2o1` (configuration not stated), for which the cell number change was -0.677%. Also, under setting [2], the AC50 is 0.13 µM [rising, full curve, poor fit]. The AC50 under setting [1] is 1.84 µM [rising, partial curve]. With `CCOC(=O)N1CCC(NC(=O)C(CC(C)C)NC(=O)C2CCC(C)CC2)CC1` (configuration not stated), the cell number change turned out to be 31.9%. Further, under setting [2], the AC50 was 11.6 µM [rising, single point]. In addition, the AC50 under setting [1] was 3.66 µM [falling, partial curve]. For the molecule `CC(=O)C1=C(C)Nc2ncnn2C1c1ccc(F)cc1` (configuration not stated), the cell number change came to 9.19%. Also, the AC50 under setting [1] is 29.1 µM [rising, single point]. In the case of `Cc1ccc(NC(=O)N2CCCCCC2)cc1C`, the cell number change is -3.18%. For the molecule `O=C(NC1CCCCCCC1)c1ccc2c(c1)N(Cc1ccc(F)cc1)C(=O)CS2=O` (configuration not stated), the cell number change is 10.4%. The AC50 under setting [1] is 2.06 µM [rising, full curve].

Take `COc1ccc(OC)c(Nc2cc(C)c3ccccc3n2)c1`: the cell number change is -0.835%. Moreover, the concentration at half-maximal activity (AC50) under setting [1] was 10.3 µM [falling, partial curve, poor fit]. `CCNC(=S)NNC(=O)c1cc(-c2cccc(OCC)c2)nc2ccccc12`: the cell number change turned out to be 71%. For the same molecule, the AC50 under setting [2] is 20.6 µM [rising, single point]. Also, the AC50 under setting [1] was 5.17 µM [rising, full curve]. Turning to `COc1ccc2[nH]c(C(=O)N(Cc3ccccn3)Cc3ccccn3)cc2c1`, the cell number change was -15.9%. The AC50 under setting [1] was 23.1 µM [falling, single point].

With `Cc1cc(=O)[nH]c(N/N=C/c2c(C)nn(-c3ccccc3Cl)c2Cl)n1`, the cell number change is -44.9%. In the case of `CCCn1nnc(NC(=S)NC(=O)CC)n1`, the cell number change was -1.03%. For the same molecule, the half-maximal activity concentration (AC50) under setting [2] is 6.51 µM [falling, single point]. The AC50 under setting [1] was 4.11 µM [falling, full curve]. On to `CCC(C)(C)n1nnnc1C(C(C)C)N(CCCO)Cc1cc2cc(C)ccc2[nH]c1=O` (configuration not stated), for which the cell number change is -4.37%. The concentration at half-maximal activity (AC50) under setting [1] was 3.26 µM [rising, single point].

Turning to `Cc1ccccc1Cn1ccc(NC(=O)CCSc2nc(-c3ccco3)cc(C(F)(F)F)n2)n1`, the cell number change was -21%. In addition, the AC50 under setting [1] was 16.4 µM [falling, partial curve]. With `CCCN1CN(Cc2ccco2)c2nc3ccccc3n2C1`, the cell number change worked out at 3.83%. For the same molecule, the AC50 under setting [1] is 0.651 µM [rising, single point]. On to `CC(=O)c1cc(C)ccc1OC(=O)c1ccco1`, for which the cell number change is -30.3%. The half-maximal activity concentration (AC50) under setting [2] is 0.731 µM [falling, full curve, poor fit]. In addition, the concentration at half-maximal activity (AC50) under setting [1] was 0.82 µM [falling, full curve, poor fit]. For the molecule `CCOC(=O)CSc1nc2ccccc2c(=O)n1NC(=O)c1ccccc1`, the cell number change is 15.7%. For the same molecule, the AC50 under setting [1] is 11.6 µM [rising, partial curve, poor fit]. Turning to `CCN(CC)S(=O)(=O)c1ccc(F)c(C(=O)NCCCN2CCOCC2)c1`, the cell number change came out at 9.44%. Also, the AC50 under setting [1] was 0.00461 µM [falling, full curve, poor fit]. With `OC(COCCOc1ccc(Br)cc1)CN1CCCCC1` (configuration not stated), the cell number change is -66.7%. Under setting [2], the half-maximal activity concentration (AC50) was 29.1 µM [falling, single point]. For `COc1ccc([N+](=O)[O-])cc1N(CC(O)CN1C(=O)NC(C)(C)C1=O)S(=O)(=O)c1ccccc1` (configuration not stated), the cell number change is -27%. Under setting [1], the half-maximal activity concentration (AC50) was 29.1 µM [falling, single point]. On to `Cc1ccc(N2CCN(C(=O)c3nn(C)c4c3CS(=O)(=O)c3ccccc3-4)CC2)c(C)c1`, for which the cell number change is -28.8%. As for `CCN(CC)CCCN(CC(=O)N(C)Cc1ccccc1)C(=O)c1ccc([N+](=O)[O-])cc1`, the cell number change amounted to 18.2%. Also, the concentration at half-maximal activity (AC50) under setting [1] was 7.31 µM [rising, partial curve, poor fit].

Turning to `O=C(O)c1cccc(S(=O)(=O)NCc2cccs2)c1`, the AC50 under setting [1] is 0.092 µM [falling, full curve, poor fit]. Take `COC(=O)c1ccccc1Nc1cc(C)nc2nc(C)nn12`: the cell number change came to 32.1%. Moreover, the AC50 under setting [2] is 29.1 µM [rising, single point]. Also, the AC50 under setting [1] was 8.2 µM [rising, partial curve]. Regarding `O=C(CSc1nc2ccccc2nc1N1CCCCC1)Nc1ccc(F)cc1`, the cell number change turned out to be 6.05%. The same measure, in the same setting: the figure for `COc1ccccc1C(=O)NC(=O)COC(=O)c1cccc(OC(F)F)c1` is 1.62%. Turning to `CCCn1c(SCC(=O)c2ccc3c(c2)OCCO3)n[nH]c1=O`, the AC50 under setting [1] is 29.1 µM [rising, partial curve]. Take `O=C(COC(=O)C1CCN(S(=O)(=O)c2cccs2)CC1)NCc1ccccc1`: the cell number change came out at 0.519%. On to `CCN(CC)S(=O)(=O)c1cccc(C(=O)Nc2cccc(C)c2)c1`, for which the AC50 under setting [2] is 2.91 µM [rising, partial curve] and the AC50 under setting [1] was 3.66 µM [rising, single point].
